Data on 65 compounds can be found in PubChem BioAssay AID662 (National Center for Advancing Translational Sciences (NCATS), 2007).

“And” between values parts separate entries of the source, which are not always exact repeats. Equal entries are not always repeated. This is one part of the list. These are further read-outs of the screen, such as a control signal, another cell line or another target. No call is given for them. Compounds called inactive in the main read-out are mostly missing here. Potencies come from curve fits of mixed quality, noted in brackets.

This assay can be described thus: Cell signaling CRE-BLA (Fsk stim). The following applies: CHO CRE-bla reporter (cAMP response element driving beta-lactamase), forskolin EC10, beta-lactamase ratio; measured here: 460 nm blue channel. The essentials:
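Forskolin analogue NKH 477 at EC10 stimulated CRE-driven beta-lactamase in CHO cells alongside compound dilution series. Beta-lactamase was measured with CCF4, excitation 405 nm, emission ratio 460/530 nm.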
By AC50 is commonly meant the concentration giving half of the maximal activity seen. With `C[C@H](N)Cc1c[nH]c2ccc(O)cc12`, the AC50 is 12.6 µM [falling, partial curve, poor fit].
Regarding `CC(Oc1ccc(-c2ccccc2)cc1)C(=O)O` (stereo not given), the AC50 is 0.794 µM [falling, full curve].
The same measure for `Cc1ccc2c(c1)CC1(CN2C)C(=O)NC(=O)N(c2cc(C)ccc2C)C1=O` (stereo not given): 12.6 µM [falling, partial curve]; for `CCn1c(=O)cc(OCC(=O)N2CCN(Cc3ccc4c(c3)OCO4)CC2)c2ccccc21`: 7.94 µM [rising, partial curve]; for `N=C(N)c1c(O)n(C2CCCCC2)c(=O)n(C2CCCCC2)c1=O`: 25.1 µM [falling, single point].
In the case of `O=C(Oc1ccccc1)N1CCC2(CCCN(Cc3nccs3)C2)CC1`, the AC50 is 5.01 µM [falling, single point].
As to `CN1CC[C@@]2(c3cccc(O)c3)Cc3nc4ccccc4cc3C[C@H]2C1`, the AC50 is 31.6 µM [falling, single point].
As for `O/N=C/c1c[nH]c2ccccc12`, the AC50 was 7.94 µM [falling, partial curve].
The same measure for `COc1cc2ccccc2c2cc([N+](=O)[O-])oc12`: 1.26 µM [rising, partial curve].
The same measure for `Oc1cc2c(cc1O)[C@H]1c3ccccc3CN[C@H]1CC2`: 31.6 µM [falling, single point]; for `CC1CCC(C(=O)NC(C(=O)N2CCC3(CC2)OCCO3)C(C)C)CC1` (stereo not given): 2 µM [falling, partial curve, poor fit].
Regarding `COc1cc2[nH]c(=O)n(-c3ccccc3)c(=O)c2cc1OC`, the AC50 is 0.398 µM [rising, full curve, poor fit].
For the compound `CC(C)OC(=O)c1c(N)n(CC2CCCO2)c2nc3ccccc3nc12` (stereo not given), the concentration at half-maximal activity (AC50) is 10 µM [rising, partial curve].
With `Cc1sc2ncn(CC(=O)N3CCC4(CC3)OCCO4)c(=O)c2c1C`, the concentration at half-maximal activity (AC50) is 0.00398 µM [falling, full curve, poor fit].
The same measure for `CC1(C)CN=C(Nc2ccccc2C(F)(F)F)S1`: 10 µM [rising, partial curve]; for `[Cl-].[Cl-].[Hg+2]`: 1.26 µM [falling, full curve].
On to `O=c1ccc2cc(O[C@H]3O[C@@H](CO)[C@@H](O)[C@@H](O)[C@@H]3O)c(O)cc2o1`, for which the AC50 is 10 µM [rising, partial curve].
Consider `CC[C@]1(OC(=O)CN)C(=O)OCc2c1cc1n(c2=O)Cc2cc3ccccc3nc2-1`, for which the AC50 is 0.0631 µM [rising, full curve].
In the case of `C(#CCN1CCCC1)CN1CCCC1`, the AC50 was 5.01 µM [rising, single point].
`CCCSc1nc(O)c(CC)c(=O)n1C(C)CC` (stereo not given): the AC50 is 5.01 µM [rising, single point].
The same measure for `COCCCn1c(N)c(C(=O)NCCC(C)C)c2nc3ccccc3nc21`: 12.6 µM [rising, partial curve].
The same measure for `CCC(=NCc1cccnc1)c1c(O)n(Cc2ccccc2)c(=O)[nH]c1=O`: 1.58 µM [rising, full curve, poor fit]; for `COc1ccc(C2=NCC(=O)N(CC(=O)NCc3ccco3)c3sc4c(c32)CCCC4)cc1OC`: 3.98 µM [rising, single point].
The value for `CS(=O)(=O)Nc1ccc(Cc2noc(-c3ccc4[nH]cc(CCN)c4c3)n2)cc1` was 7.94 µM [falling, partial curve, poor fit]; that for `Cc1nc2cc(F)ccc2n1C1CCN(Cc2nnnn2CCc2ccccc2)CC1` was 3.98 µM [rising, partial curve].
`CC(=O)Nc1ccc(OC(=O)N(C)c2ccccc2)cc1`: the AC50 was 0.00316 µM [falling, full curve].
`N[C@@H](Cc1c[nH]c2ccccc12)c1nnc(SCc2c(F)cccc2Cl)o1`: the concentration at half-maximal activity (AC50) was 25.1 µM [rising, single point].
The same measure for `C/C=C(\C)C(=O)O[C@@H]1C(C)=C2[C@H]([C@@H]1OC(=O)CCCCCCC)[C@@](C)(OC(C)=O)C[C@@H](OC(=O)CCC)[C@@]1(O)[C@H]2OC(=O)[C@]1(C)O`: 0.0251 µM [rising, full curve].
Turning to `C[C@]1(O)CC[C@H]2[C@@H]3[C@@H](O)CC4=CC(=O)CC[C@@]4(C)[C@H]3CC[C@]21C`, the AC50 was 3.16 µM [falling, single point].
Turning to `O=c1[nH]c(=O)n(C2CCCCCC2)c(O)c1C=NCC1CCCO1` (stereo not given), the concentration at half-maximal activity (AC50) was 12.6 µM [rising, single point].
For the compound `c1cncc(C2CC(c3cccs3)n3ncnc3N2)c1` (stereo not given), the AC50 was 0.00794 µM [falling, full curve, poor fit].
As to `CCC(=NC1CCN(Cc2ccccc2)CC1)c1c(O)[nH]c(=O)[nH]c1=O`, the AC50 was 25.1 µM [rising, single point].
On to `CCCc1cc2c(n1Cc1ccco1)C(C)C1CN(C(=O)c3ccccc3)C(C)(C(=O)OC)C21` (stereo not given), for which the AC50 is 20 µM [rising, single point].
As to `O=c1c2ccccc2[se]n1-c1ccccc1`, the AC50 was 15.8 µM [falling, partial curve] and 3.98 µM [falling, full curve, poor fit].
In the case of `CCCCN=Cc1c(O)n(-c2c(C)cc(C)cc2C)c(=O)[nH]c1=O`, the AC50 is 12.6 µM [rising, single point].
The value for `O=C(Cn1ncc2c3ccccc3n(Cc3ccccc3F)c2c1=O)N1CCC2(CC1)OCCO2` was 0.126 µM [falling, full curve, poor fit]; that for `O=C(COc1ccccc1)N1CCN(C2CCCC2)CC1` was 0.00631 µM [falling, full curve].
`COc1ccc(N=C(C)c2c(O)n(C)c(=O)n(C)c2=O)c(OC)c1`: the AC50 is 0.794 µM [rising, full curve].
With `COc1cc2c(cc1O)C[C@H]1c3c(cc(OC)c(O)c3-2)CCN1C`, the concentration at half-maximal activity (AC50) is 7.94 µM [falling, partial curve, poor fit].
With `Cn1c(O)c(C=Nc2ccc3c(c2)CCC3)c(=O)n(C)c1=O`, the concentration at half-maximal activity (AC50) is 12.6 µM [rising, partial curve].
The same measure for `Cc1cccc(C)c1NC1=NCCCCS1`: 31.6 µM [falling, single point]; for `O=C(CCc1nc(-c2ccccc2F)no1)N1CCC2(CC1)OCCO2`: 25.1 µM [falling, single point]; for `CNc1ccc2oc(C[C@H]3O[C@]4(CC[C@H]3C)O[C@H]([C@H](C)C(=O)c3ccc[nH]3)[C@H](C)C[C@H]4C)nc2c1C(=O)O`: 0.251 µM [rising, full curve].
Turning to `Nc1ccccc1N=Cc1c(O)n(CCC2=CCCCC2)c(=O)[nH]c1=O`, the AC50 was 25.1 µM [rising, partial curve].
The same measure for `CSC([N-]/N=C/c1cccc(C)n1)=[S]=[Cu].CS[C@H]([S-])[N-]/N=C/c1cccc(C)n1`: 5.01 µM [falling, single point]; for `Cc1ccc(CN2CCN(C)CC2)c(C)c1`: 0.00316 µM [falling, full curve]; for `CCC(=NCC1CCCO1)c1c(O)n(-c2ccccc2)c(=O)[nH]c1=O` (stereo not given): 1 µM [rising, full curve, poor fit].
The value for `CCNc1nc(Cl)nc(NC(C)C)n1` was 10 µM [rising, full curve].
The same measure for `Oc1c(Br)c(Br)c(Br)c(Br)c1Br`: 15.8 µM [falling, partial curve, poor fit].
Turning to `CN1C(=O)N(C)C(=O)C2(Cc3c(ccc4ccccc34)N(C)C2)C1=O`, the concentration at half-maximal activity (AC50) was 7.94 µM [falling, partial curve].
The same measure for `c1ccc2c(c1)-c1cccc3cccc-2c13`: 12.6 µM [rising, full curve]; for `COc1cc(OC)cc(-n2nc(C(=O)N3CCC4(CC3)OCCO4)c3ccccc3c2=O)c1`: 10 µM [rising, partial curve, poor fit]; for `C=CCn1c(O)c(C(C)=Nc2ccc(N(CC)CC)cc2)c(=O)[nH]c1=O`: 25.1 µM [rising, single point].
Regarding `Cc1cccn2c(=O)c3cc(C(=O)N4CCC5(CC4)OCCO5)n(C)c3nc12`, the AC50 is 0.398 µM [rising, full curve].
For `Cc1ccc(CC2C(=O)N(C)C(=O)N(C)C2=O)s1`, the AC50 is 0.1 µM [rising, full curve].
Turning to `CN(C)c1ccc(N=O)cc1`, the AC50 was 10 µM [falling, partial curve].
The same measure for `CC(C)(c1ccccc1)c1ccc(O)cc1`: 10 µM [rising, full curve].
For the compound `CCCCn1c(O)c(C(C)=NCCc2ccccc2)c(=O)[nH]c1=O`, the AC50 was 25.1 µM [rising, single point].
The same measure for `O=c1[nH]c(=O)n(CCC2=CCCCC2)c(O)c1C=NCCN1CCNCC1`: 5.01 µM [falling, full curve]; for `Cc1ccc(-n2c(O)c(C=Nc3ccccc3N)c(=O)[nH]c2=O)cc1C`: 0.00794 µM [falling, full curve, poor fit]; for `O=C(Cn1cnc2sc3c(c2c1=O)CCCC3)NCCC(=O)N1CCC2(CC1)OCCO2`: 25.1 µM [falling, single point].
Consider `CCCCCn1c(N)c(C(=O)NCCN2CCOCC2)c2nc3ccccc3nc21`, for which the AC50 is 12.6 µM [rising, partial curve].
In the case of `C=CCn1c(O)c(C(CC)=Nc2ccccc2NC(C)=O)c(=O)[nH]c1=O`, the AC50 is 10 µM [falling, single point].
The same measure for `CCC(C)N1C(=O)NC(=O)C2(Cc3c(ccc4ccccc34)N(C)C2)C1=O` (stereo not given): 7.94 µM [falling, partial curve]; for `Cc1cc(S(=O)(=O)NC(C)C)ccc1OCC(=O)N1CCN(Cc2ccc3c(c2)OCO3)CC1`: 0.00398 µM [falling, full curve, poor fit].
